Results from US20080064730A1, “Azine Compounds for Combating Animal Pests” (BASF Aktiengesellschaft, priority 2004, published 2008).
Some of these results come from one statement about several compounds together.

Tests used:
Format in all cases: in vivo
[1] = tested on: Bean Aphid (Aphis Fabae); assay: Bean aphid test on dipped nasturtium plants; conditions: 300 ppm, after 3 days
[2] = tested on: Green Peach Aphid (Myzus Persicae); assay: Green peach aphid test on dipped pepper plants; conditions: 300 ppm; pepper plant leaves dipped; after 5 days
Method: • The soybean bean cyst nematode culture was maintained in a greenhouse and soybean eggs and J2 larvae were obtained for testing by dislodging soybean cysts from the roots with a sieve. The cysts were broken to release the eggs and the eggs were maintained in water. The eggs hatched after 5-7 days at 28° C. To microtiter plates containing about 150 μg of compound, 80:20 acetone was added to each well and the solution was mixed to obtain the desired compound concentration. The nematode solution was added to the plate. The plates were then sealed and placed in an incubator at 27° C. and 50% (+/−2%) relative humidity. […] II Activity Against Insects II.1 Cotton Aphid (Aphis Gossypii) • The active compounds were formulated in 50:50 acetone:water and 100 ppm Kinetics surfactant. • Cotton plants at the cotyledon stage (one plant per pot) were infested by placing a heavily infested leaf from the main colony on top of each cotyledon. The aphids were allowed to transfer to the host plant overnight, and the leaf used to transfer the aphids was removed. The cotyledons were dipped in the test solution and allowed to dry. […] II.2 Green Peach Aphid (Myzus Persicae) • The active compounds were formulated in 50:50 acetone:water and 100 ppm Kinetic® surfactant. • Pepper plants in the 2nd leaf-pair stage (variety ‘California Wonder’) were infested with approximately 40 laboratory-reared aphids by placing infested leaf sections on top of the test plants. The leaf sections were removed after 24 hr. The leaves of the intact plants were dipped into gradient solutions of the test compound and allowed to dry. Test plants were maintained under fluorescent light (24 hour photoperiod) at about 25° C. and 20-40% relative humidity. […] II.3 Bean Aphid (Aphis Fabae) • The active compounds were formulated in 50:50 acetone:water and 100 ppm Kinetics surfactant. • Nasturtium plants grown in Metro mix in the 1st leaf-pair stage (variety ‘Mixed Jewle’) were infested with approximately 2-30 laboratory-reared aphids by placing infested cut plants on top of the test plants. The cut plants were removed after 24 hr. Each plant was dipped into the test solution to provide complete coverage of the foliage, stem, protruding seed surface and surrounding cube surface and allowed to dry in the fume hood. The treated plants were kept at about 25° C. with continuous fluorescent light. […] II.4 Silverleaf Whitefly (Bemisia Argentifolii) • The active compounds were formulated in 50:50 acetone:water and 100 ppm Kinetics surfactant. • Selected cotton plants were grown to the cotyledon state (one plant per pot). The cotyledons were dipped into the test solution to provide complete coverage of the foliage and placed in a well-vented area to dry. Each pot with treated seedling was placed in a plastic cup and 10 to 12 whitefly adults (approximately 3-5 day old) were introduced. The insects were collected using an aspirator and an 0.6 cm, non-toxic Tygon® tubing (R-3603) connected to a barrier pipette-tip. The tip, containing the collected insects, was then gently inserted into the soil containing the treated plant, allowing Insects to crawl out of the tip to reach the foliage for feeding. The cups were covered with a re-usable screened lid (150 micron mesh polyester screen PeCap from Tetko Inc). Test plants were maintained in the holding room at about 25° C. and 20-40% relative humidity for 3 days avoiding direct exposure to the fluorescent light (24 hour photoperiod) to prevent trapping of heat inside the cup. […] II.5 Orchid Thrips (Dichromothrips Corbetti) • Dichromothrips corbetti adults used for bioassay were obtained from a colony maintained continuously under laboratory conditions. For testing purposes, the test compound was diluted to a concentration of 500 ppm (wt compound: vol diluent) in a 1:1 mixture of acetone:water, plus 0.01% Kinetics surfactant. • Thrips potency of each compound was evaluated by using a floral-immersion technique. Plastic petri dishes were used as test arenas. […]

[3] = tested on: Silverleaf Whitefly (Bemisia Argentifolii); assay: Silverleaf whitefly test on dipped cotton cotyledons; conditions: 300 ppm, whitefly adults, 3 days after treatment
[4] = tested on: Root-Knot Nematode (Meloidogyne incognita); assay: Root-knot nematode microtiter plate mortality test; conditions: 100 ppm; after 72 hours; J2 nematodes; immobility regarded as mortality
Method: • Test compounds were prepared and formulated into aqueous formulations using acetone. The formulations were tested using root knot nematode (2nd instar) and soybean cyst nematode (2nd instar) as target species. I.1 Test Procedures for Root-Knot Nematode (Meloidogyne incognita): • Tomato plants (var. Bonny Best) were grown in the greenhouse in plastic tubs (4 to 6 plants per tub). The plants and soil (a 50:50 mixture of sand and “New Egypt” sandy loam) were infested with M. incognita J2 (to establish the “in-house” colony, M. incognita J2 were initially acquired from Auburn University). The plants were kept pruned and were used on an “as needed” basis. The tomato plants were kept in the cylinder containing hydroponic solution and aerated until the nematodes were no longer present in the solution (usually about 60 days). The cultures were checked daily by eluting a small volume (approximately 20 ml) from the bottom of a funnel attached to the cylinder into a small crystallizing dish and observed using a binocular dissecting scope. If needed for testing, the nematodes were cleaned and concentrated by pouring the culture solution through a sieve for cleaning and a sieve for concentrating. The nematodes were then resuspended in water to a concentration of approximately 20 to 50 nematodes per 50 μl. These were counted by putting 25 μl of the nematode solution into a well of an unused well of an assay plate. The total was then multiplied by 2 for a final total of nematodes per 50 μl of solution. To microtiter plates containing about 1.0 mg of compound, 80:20 acetone was added to each well and the solution was mixed to obtain the desired compound concentration. The nematode solution was added to each plate. The plates were then sealed and they were placed in an incubator at 27° C. and 50% (+/−2%) relative humidity. After 72 hours, the population mortality was read, whereby immobility of nematodes was regarded as mortality.

[5] = tested on: Soybean Cyst Nematode (Heterodera Glycine); assay: Soybean cyst nematode microtiter plate mortality test; conditions: 100 ppm; after 72 hours; J2 larvae; immobility regarded as mortality
Method: I.2 Test Procedures for Soybean Cyst Nematode (Heterodera Glycine):
• The soybean bean cyst nematode culture was maintained in a greenhouse and soybean eggs and J2 larvae were obtained for testing by dislodging soybean cysts from the roots with a sieve. The cysts were broken to release the eggs and the eggs were maintained in water. The eggs hatched after 5-7 days at 28° C. To microtiter plates containing about 150 μg of compound, 80:20 acetone was added to each well and the solution was mixed to obtain the desired compound concentration. The nematode solution was added to the plate. The plates were then sealed and placed in an incubator at 27° C. and 50% (+/−2%) relative humidity. […] II Activity Against Insects II.1 Cotton Aphid (Aphis Gossypii) • The active compounds were formulated in 50:50 acetone:water and 100 ppm Kinetics surfactant. • Cotton plants at the cotyledon stage (one plant per pot) were infested by placing a heavily infested leaf from the main colony on top of each cotyledon. The aphids were allowed to transfer to the host plant overnight, and the leaf used to transfer the aphids was removed. The cotyledons were dipped in the test solution and allowed to dry. […] II.2 Green Peach Aphid (Myzus Persicae) • The active compounds were formulated in 50:50 acetone:water and 100 ppm Kinetic® surfactant. • Pepper plants in the 2nd leaf-pair stage (variety ‘California Wonder’) were infested with approximately 40 laboratory-reared aphids by placing infested leaf sections on top of the test plants. The leaf sections were removed after 24 hr. The leaves of the intact plants were dipped into gradient solutions of the test compound and allowed to dry. Test plants were maintained under fluorescent light (24 hour photoperiod) at about 25° C. and 20-40% relative humidity. […] II.3 Bean Aphid (Aphis Fabae) • The active compounds were formulated in 50:50 acetone:water and 100 ppm Kinetics surfactant. • Nasturtium plants grown in Metro mix in the 1st leaf-pair stage (variety ‘Mixed Jewle’) were infested with approximately 2-30 laboratory-reared aphids by placing infested cut plants on top of the test plants. The cut plants were removed after 24 hr. Each plant was dipped into the test solution to provide complete coverage of the foliage, stem, protruding seed surface and surrounding cube surface and allowed to dry in the fume hood. The treated plants were kept at about 25° C. with continuous fluorescent light. […] II.4 Silverleaf Whitefly (Bemisia Argentifolii) • The active compounds were formulated in 50:50 acetone:water and 100 ppm Kinetics surfactant. • Selected cotton plants were grown to the cotyledon state (one plant per pot). The cotyledons were dipped into the test solution to provide complete coverage of the foliage and placed in a well-vented area to dry. Each pot with treated seedling was placed in a plastic cup and 10 to 12 whitefly adults (approximately 3-5 day old) were introduced. The insects were collected using an aspirator and an 0.6 cm, non-toxic Tygon® tubing (R-3603) connected to a barrier pipette-tip. The tip, containing the collected insects, was then gently inserted into the soil containing the treated plant, allowing Insects to crawl out of the tip to reach the foliage for feeding. The cups were covered with a re-usable screened lid (150 micron mesh polyester screen PeCap from Tetko Inc). […]

| Structure (SMILES) | mortality in comparison with untreated controls [1] | mortality in comparison with untreated controls [3] | other results |
| --- | --- | --- | --- |
| CC(C=NN=C(Cl)c1cccnc1)Cc1ccccc1 (centres unmarked) [Example 79] | over 70% | – | mortality in comparison with untreated controls [2]: over 75% |
| C/C(=N\N=CC(C)Cc1ccccc1)c1cccs1 (centres unmarked) [Example 57] | – | over 70% | mortality compared to untreated controls [4]: over 95%; mortality compared to untreated controls [5]: over 95% |
| ClC(=NN=Cc1cc2ccccc2o1)c1cccnc1 [Example 9] | over 70% | – | – |
| CSC(=NN=CC(C)Cc1ccc(F)cc1)c1cccs1 (centres unmarked) [Example 16] | – | over 70% | – |
| COC(=NN=CC(C)Cc1ccccc1)c1cccnc1 (centres unmarked) [Example 77] | – | over 70% | – |
